Reference: the supplement of paper PMC10849652
This is one part of the list.

The chains behind the UniProt entries cited, without tags or fusion partners. Where a name states a change or a piece, a line headed by the entry shows the natural chain unless it says otherwise.
UniProt P61024, whole entry, looked up: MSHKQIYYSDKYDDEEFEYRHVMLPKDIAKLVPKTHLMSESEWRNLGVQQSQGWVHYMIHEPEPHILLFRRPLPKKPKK
UniProt Q99828: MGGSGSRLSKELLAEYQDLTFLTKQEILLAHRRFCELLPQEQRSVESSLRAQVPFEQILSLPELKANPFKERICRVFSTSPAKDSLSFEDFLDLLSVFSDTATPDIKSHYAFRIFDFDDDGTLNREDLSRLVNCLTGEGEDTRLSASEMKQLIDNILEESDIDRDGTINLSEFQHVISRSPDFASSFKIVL
UniProt P09543: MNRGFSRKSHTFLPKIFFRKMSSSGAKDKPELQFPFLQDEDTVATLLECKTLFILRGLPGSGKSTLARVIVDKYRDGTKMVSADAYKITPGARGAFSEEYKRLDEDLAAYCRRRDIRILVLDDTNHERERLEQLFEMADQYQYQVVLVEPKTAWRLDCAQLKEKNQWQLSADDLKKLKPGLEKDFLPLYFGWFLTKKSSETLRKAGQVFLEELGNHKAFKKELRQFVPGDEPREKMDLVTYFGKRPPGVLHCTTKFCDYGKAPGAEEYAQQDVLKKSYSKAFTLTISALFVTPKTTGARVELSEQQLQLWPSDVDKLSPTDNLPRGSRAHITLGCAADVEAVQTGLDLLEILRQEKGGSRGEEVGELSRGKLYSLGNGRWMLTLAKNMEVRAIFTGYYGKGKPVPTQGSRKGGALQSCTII
UniProt Q8WUH1: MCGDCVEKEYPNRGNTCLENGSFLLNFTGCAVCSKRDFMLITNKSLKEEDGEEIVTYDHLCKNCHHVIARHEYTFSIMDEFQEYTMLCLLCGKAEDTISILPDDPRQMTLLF
UniProt Q96KP4: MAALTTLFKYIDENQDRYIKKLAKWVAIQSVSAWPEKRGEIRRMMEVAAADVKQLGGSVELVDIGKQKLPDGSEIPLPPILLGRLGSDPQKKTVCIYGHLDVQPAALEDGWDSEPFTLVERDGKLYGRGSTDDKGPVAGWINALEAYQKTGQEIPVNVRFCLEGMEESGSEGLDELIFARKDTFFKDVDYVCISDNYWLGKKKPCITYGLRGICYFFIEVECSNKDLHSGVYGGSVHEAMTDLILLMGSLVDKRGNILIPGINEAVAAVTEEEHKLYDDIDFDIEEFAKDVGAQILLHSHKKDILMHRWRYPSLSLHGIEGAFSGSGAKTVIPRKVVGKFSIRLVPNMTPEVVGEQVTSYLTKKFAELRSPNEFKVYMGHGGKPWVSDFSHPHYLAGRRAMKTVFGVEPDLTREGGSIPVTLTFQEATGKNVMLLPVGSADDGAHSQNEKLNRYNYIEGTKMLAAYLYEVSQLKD
UniProt Q9H5X1: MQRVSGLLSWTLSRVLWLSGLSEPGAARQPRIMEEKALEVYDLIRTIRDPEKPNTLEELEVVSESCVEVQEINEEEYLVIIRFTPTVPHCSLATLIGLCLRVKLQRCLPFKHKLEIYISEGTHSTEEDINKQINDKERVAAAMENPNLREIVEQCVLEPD
UniProt O95628: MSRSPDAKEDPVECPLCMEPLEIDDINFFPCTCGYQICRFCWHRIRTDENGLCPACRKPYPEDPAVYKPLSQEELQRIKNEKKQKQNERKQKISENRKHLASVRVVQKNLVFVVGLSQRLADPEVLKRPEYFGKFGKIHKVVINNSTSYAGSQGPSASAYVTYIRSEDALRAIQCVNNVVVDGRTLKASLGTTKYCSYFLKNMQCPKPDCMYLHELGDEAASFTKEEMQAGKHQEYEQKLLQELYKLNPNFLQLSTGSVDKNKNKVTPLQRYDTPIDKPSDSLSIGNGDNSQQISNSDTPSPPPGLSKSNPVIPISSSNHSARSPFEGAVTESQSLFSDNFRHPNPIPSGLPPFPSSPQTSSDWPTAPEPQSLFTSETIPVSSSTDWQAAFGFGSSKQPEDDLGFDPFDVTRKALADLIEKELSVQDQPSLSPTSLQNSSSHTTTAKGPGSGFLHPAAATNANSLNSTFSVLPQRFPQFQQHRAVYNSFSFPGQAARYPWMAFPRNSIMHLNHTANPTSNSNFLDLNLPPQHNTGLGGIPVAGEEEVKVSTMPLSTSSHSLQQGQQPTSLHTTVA
UniProt Q9GZY4: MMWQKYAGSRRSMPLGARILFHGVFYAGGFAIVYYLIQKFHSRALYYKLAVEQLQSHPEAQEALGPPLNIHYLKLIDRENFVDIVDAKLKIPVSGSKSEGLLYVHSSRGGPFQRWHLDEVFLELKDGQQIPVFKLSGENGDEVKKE
UniProt Q7Z460: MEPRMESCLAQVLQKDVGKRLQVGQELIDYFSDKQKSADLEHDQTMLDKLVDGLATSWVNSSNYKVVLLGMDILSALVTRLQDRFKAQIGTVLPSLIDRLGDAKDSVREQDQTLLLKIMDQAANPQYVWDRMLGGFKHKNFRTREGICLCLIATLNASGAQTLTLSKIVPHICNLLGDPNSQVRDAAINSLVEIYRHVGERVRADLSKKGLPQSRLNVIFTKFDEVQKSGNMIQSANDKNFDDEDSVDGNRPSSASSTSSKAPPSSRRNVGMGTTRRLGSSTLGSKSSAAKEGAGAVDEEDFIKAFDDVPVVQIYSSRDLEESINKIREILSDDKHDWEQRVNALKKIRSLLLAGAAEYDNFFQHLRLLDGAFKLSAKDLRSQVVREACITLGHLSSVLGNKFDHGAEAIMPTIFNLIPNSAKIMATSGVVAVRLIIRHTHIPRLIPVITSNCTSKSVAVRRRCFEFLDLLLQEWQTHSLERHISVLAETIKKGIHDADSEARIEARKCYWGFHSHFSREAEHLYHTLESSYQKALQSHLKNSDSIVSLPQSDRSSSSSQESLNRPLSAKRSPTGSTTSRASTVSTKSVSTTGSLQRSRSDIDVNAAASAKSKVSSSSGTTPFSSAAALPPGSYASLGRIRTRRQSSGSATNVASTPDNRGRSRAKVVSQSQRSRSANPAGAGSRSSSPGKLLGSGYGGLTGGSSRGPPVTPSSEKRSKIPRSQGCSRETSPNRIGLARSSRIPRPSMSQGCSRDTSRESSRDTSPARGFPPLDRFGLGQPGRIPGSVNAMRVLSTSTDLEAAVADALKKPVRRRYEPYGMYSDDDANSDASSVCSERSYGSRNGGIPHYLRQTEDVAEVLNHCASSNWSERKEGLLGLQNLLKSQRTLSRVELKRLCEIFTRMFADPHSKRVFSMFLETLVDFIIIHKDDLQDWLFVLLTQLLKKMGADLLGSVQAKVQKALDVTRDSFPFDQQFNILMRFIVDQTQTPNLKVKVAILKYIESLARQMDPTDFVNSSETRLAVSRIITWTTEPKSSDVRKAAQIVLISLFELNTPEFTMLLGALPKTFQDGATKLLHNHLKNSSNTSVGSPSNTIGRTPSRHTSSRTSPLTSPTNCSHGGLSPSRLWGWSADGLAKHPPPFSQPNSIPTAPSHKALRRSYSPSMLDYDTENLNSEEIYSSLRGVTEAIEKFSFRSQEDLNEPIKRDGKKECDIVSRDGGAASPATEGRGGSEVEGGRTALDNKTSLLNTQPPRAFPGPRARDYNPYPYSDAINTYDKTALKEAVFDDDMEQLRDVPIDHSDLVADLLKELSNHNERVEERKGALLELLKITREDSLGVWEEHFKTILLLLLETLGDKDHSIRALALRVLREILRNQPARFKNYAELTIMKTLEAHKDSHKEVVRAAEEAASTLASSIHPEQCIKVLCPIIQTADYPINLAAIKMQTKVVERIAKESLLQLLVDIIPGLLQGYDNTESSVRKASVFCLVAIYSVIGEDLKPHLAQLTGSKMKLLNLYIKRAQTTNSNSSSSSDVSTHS
UniProt Q92600, whole entry, looked up: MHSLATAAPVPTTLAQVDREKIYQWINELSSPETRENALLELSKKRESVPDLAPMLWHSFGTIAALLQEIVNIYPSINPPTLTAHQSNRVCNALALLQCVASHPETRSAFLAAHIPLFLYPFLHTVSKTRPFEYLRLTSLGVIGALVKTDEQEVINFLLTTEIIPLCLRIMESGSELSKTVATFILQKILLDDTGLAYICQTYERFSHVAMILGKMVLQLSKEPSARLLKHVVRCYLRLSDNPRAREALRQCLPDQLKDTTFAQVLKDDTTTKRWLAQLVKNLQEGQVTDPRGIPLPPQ
UniProt Q16740, whole entry, looked up: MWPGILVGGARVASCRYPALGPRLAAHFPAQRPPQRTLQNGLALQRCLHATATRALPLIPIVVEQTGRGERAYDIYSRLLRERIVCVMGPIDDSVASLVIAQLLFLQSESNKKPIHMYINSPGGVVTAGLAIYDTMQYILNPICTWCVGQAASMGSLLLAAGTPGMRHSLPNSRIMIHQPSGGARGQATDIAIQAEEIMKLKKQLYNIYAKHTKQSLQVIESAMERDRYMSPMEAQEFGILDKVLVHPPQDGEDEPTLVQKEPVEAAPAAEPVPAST
UniProt P62633: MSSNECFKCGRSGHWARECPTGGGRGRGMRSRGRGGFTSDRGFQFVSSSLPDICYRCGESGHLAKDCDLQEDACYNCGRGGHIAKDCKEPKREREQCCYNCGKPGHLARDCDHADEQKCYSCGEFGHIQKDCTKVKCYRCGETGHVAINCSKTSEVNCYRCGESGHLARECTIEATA
UniProt Q14008: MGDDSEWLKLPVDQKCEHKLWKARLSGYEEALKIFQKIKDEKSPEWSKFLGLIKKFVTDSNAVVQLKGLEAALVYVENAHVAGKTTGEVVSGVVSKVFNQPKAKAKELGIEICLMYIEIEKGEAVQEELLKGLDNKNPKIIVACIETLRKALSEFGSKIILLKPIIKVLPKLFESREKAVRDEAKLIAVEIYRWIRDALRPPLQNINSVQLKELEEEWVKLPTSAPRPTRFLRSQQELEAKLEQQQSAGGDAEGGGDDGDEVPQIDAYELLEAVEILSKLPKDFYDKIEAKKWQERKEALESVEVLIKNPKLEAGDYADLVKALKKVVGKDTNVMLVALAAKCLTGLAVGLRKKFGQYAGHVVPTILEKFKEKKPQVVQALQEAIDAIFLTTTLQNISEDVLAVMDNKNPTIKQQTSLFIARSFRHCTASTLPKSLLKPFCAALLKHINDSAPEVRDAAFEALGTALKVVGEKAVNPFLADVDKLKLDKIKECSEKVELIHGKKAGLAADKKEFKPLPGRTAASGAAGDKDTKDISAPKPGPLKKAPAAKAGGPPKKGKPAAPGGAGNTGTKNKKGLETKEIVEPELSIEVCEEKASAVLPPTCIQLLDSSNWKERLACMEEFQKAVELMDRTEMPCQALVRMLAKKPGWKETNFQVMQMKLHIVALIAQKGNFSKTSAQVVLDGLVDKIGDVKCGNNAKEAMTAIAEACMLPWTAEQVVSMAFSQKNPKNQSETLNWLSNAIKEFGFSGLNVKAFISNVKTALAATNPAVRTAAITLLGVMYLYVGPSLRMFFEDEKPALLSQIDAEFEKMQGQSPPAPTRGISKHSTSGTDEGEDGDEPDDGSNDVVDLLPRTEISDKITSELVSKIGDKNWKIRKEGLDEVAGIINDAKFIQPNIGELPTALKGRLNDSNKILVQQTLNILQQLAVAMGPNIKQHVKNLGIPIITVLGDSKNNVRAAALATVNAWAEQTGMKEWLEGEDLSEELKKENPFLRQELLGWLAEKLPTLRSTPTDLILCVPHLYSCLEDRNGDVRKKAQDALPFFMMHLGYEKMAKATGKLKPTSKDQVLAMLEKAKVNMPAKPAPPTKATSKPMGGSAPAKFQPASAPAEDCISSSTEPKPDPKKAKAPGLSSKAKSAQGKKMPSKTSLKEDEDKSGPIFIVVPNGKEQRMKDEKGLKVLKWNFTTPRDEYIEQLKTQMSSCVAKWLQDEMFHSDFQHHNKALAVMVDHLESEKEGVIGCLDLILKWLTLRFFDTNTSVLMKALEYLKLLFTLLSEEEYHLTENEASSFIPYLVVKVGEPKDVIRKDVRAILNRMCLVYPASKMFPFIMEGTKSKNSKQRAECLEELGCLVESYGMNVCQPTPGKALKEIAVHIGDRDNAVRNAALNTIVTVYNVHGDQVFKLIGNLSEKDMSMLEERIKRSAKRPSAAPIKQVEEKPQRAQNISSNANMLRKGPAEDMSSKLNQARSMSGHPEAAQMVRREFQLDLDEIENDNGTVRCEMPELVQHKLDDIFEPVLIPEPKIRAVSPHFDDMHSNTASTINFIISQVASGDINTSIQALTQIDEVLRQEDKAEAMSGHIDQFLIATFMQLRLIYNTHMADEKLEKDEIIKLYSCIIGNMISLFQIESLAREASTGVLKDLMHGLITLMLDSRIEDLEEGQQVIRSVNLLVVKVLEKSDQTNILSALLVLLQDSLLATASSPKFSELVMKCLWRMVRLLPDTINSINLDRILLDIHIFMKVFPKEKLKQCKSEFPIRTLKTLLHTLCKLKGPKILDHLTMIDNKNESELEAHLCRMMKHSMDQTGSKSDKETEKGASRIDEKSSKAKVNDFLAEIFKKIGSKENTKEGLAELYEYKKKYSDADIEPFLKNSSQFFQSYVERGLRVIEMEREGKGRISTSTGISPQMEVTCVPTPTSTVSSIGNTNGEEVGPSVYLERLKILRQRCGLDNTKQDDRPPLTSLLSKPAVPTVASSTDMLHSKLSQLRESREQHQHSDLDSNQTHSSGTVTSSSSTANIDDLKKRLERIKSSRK
UniProt Q9NRP2: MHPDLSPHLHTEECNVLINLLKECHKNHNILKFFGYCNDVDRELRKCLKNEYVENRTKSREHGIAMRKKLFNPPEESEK

Assays:
Assay in all cases: log2 fold change, soluble protein after heating vs DMSO (PISA); higher = thermal stabilisation; K562 cells, 10 uM, 30 min; active = over 0.2 and 3.5 SD of the protein, either way, in both replicates (recomputed)
[1] = compound: COC1=CC=C(C=C1)CN2C=CC3=C2C=C(C=C3)C(=O)NO
Method in brief: (§1)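 For each measurement, 10 μM compound was applied for 30 min to K562 cells at 2×10^6 cells/mL. Aliquots were heated for 3 min across 48°C-58°C, pooled, and extracted in PBS with 0.5% NP-40 at 4°C; the supernatant after 21,000xg for 90 min was soluble protein. This was quantified by TMTpro 16plex LC-MS/MS with channel sums equalised, and thermal stability was reported relative to control samples from duplicates, on a log2 fold-change scale.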

[2] = compound: CON(C)C(=O)N1N=C(c2cc(F)ccc2F)S[C@@]1(CCCN)c1ccccc1 [filanesib]
Method in brief: as §1

[3] = compound: CO[C@H]1C[C@@H]2CC[C@@H](C)[C@@](O)(O2)C(=O)C(=O)N2CCCC[C@H]2C(=O)O[C@H]([C@H](C)C[C@@H]2CC[C@H](n3cnnn3)[C@H](OC)C2)CC(=O)[C@H](C)/C=C(\C)[C@@H](O)[C@@H](OC)C(=O)[C@H](C)C[C@H](C)/C=C/C=C/C=C/1C [zotarolimus]
Method in brief: as §1

[4] = compound: COc1cc(C(=O)O)ccc1NC(=O)[C@@H]1N[C@@H](CC(C)(C)C)[C@](C#N)(c2ccc(Cl)cc2F)[C@H]1c1cccc(Cl)c1F [idasanutlin]
Method in brief: as §1

[5] = compound: COc1cc(Nc2ncc3c(n2)-c2ccc(Cl)cc2C(c2c(F)cccc2OC)=NC3)ccc1C(=O)O [alisertib]
Method in brief: as §1

[6] = compound: COc1cc2nc(-c3cc(F)ccc3O)nc(N[C@@H]3CNC[C@H]3C(C)(C)O)c2cc1OC
Method in brief: as §1

[7] = compound: COc1cc2ncnc(Nc3ccc(F)c(Cl)c3)c2cc1OCCCN1CCOCC1 [gefitinib]
Method in brief: as §1

[8] = compound: COc1cccc2cc(-c3nc([C@H]4CC[C@H](C(=O)O)CC4)n4ncnc(N)c34)[nH]c12
Method in brief: as §1

[9] = compound: CS(=O)(=O)CCNCc1ccc(-c2ccc3ncnc(Nc4ccc(OCc5cccc(F)c5)c(Cl)c4)c3c2)o1 [lapatinib]
Method in brief: as §1

[10] = compound: CS(=O)(=O)N1CCN(Cc2cc3nc(-c4cccc5[nH]ncc45)nc(N4CCOCC4)c3s2)CC1 [pictilisib]
Method in brief: as §1

Measured: log2 fold change

CNOT6L (UniProt Q96LI5)
inactive: [1] 0.01 | [2] 0.06 | [3] 0.001 | [4] 0.21 | [5] -0.123 | [6] 0.055 | [7] 0.08 | [8] -0.027 | [9] 0.156 | [10] -0.133

CKS1B (UniProt P61024)
inactive: [1] -0.045 | [2] 0.047 | [3] 0.013 | [4] -0.011 | [5] -0.012 | [6] -0.048 | [7] -0.008 | [8] 0.031 | [9] 0.004 | [10] -0.007

CIAO1 (UniProt O76071)
inactive: [1] 0.019 | [2] -0.055 | [3] -0.005 | [4] -0.016 | [5] -0.027 | [6] -0.01 | [7] 0.006 | [8] 0.046 | [9] -0.148 | [10] 0.019

CIRBP isoform 2 (UniProt Q14011)
inactive: [1] -0.005 | [2] 0.248 | [3] -0.048 | [4] 0.085 | [5] -0.118 | [6] 0.017 | [7] -0.063 | [8] -0.051 | [9] -0.034 | [10] -0.095

CNST (UniProt Q6PJW8)
inactive: [1] 0.014 | [2] -0.055 | [3] 0.013 | [4] 0.01 | [5] -0.004 | [6] 0.015 | [7] 0.007 | [8] 0.032 | [9] 0.018 | [10] 0.066

CIB1 isoform 2 (UniProt Q99828)
inactive: [1] 0.133 | [2] 0.133 | [3] 0.11 | [4] -0.021 | [5] 0.129 | [6] 0.009 | [7] -0.059 | [8] -0.193 | [9] -0.018 | [10] 0.01

CHST11 (UniProt Q9NPF2)
inactive: [1] 0.153 | [2] 0.016 | [3] 0.061 | [4] -0.016 | [5] -0.248 | [6] -0.19 | [7] -0.013 | [8] 0.012 | [9] 0.297 | [10] -0.025

CKMT2 (UniProt P17540)
inactive: [1] 0.01 | [2] 0.125 | [3] -0.007 | [4] 0.001 | [5] 0.369 | [6] 0.082 | [7] 0.027 | [8] 0.039 | [9] -0.079 | [10] -0.058

CNP (UniProt P09543)
inactive: [1] -0.036 | [2] 0.02 | [3] 0.026 | [4] -0.056 | [5] -0.023 | [6] 0.125 | [7] 0.024 | [8] 0.025 | [9] -0.032 | [10] 0.061

CHMP7 (UniProt Q8WUX9)
inactive: [1] -0.112 | [2] 0.008 | [3] -0.118 | [4] -0.033 | [5] -0.082 | [6] -0.358 | [7] 0.213 | [8] 0.084 | [9] 0.024 | [10] -0.008

CHP1 (UniProt Q99653)
inactive: [1] 0.039 | [2] -0.044 | [3] 0.058 | [4] -0.084 | [5] -0.144 | [6] 0.129 | [7] 0.026 | [8] -0.02 | [9] -0.054 | [10] 0.053

CLIC4 (UniProt Q9Y696)
inactive: [1] 0.005 | [2] -0.017 | [3] -0.002 | [4] -0.013 | [5] -0.034 | [6] 0.038 | [7] 0.016 | [8] 0.061 | [9] -0.015

CHORDC1 (UniProt Q9UHD1)
inactive: [1] 0.032 | [2] -0.104 | [3] 0.003 | [4] -0.077 | [5] -0.047 | [6] 0 | [7] -0.022 | [8] 0.015 | [9] -0.004 | [10] 0.029

CNOT7 (UniProt Q9UIV1)
inactive: [1] -0.032 | [2] 0.012 | [3] 0.018 | [4] -0.008 | [5] -0.011 | [6] 0.233 | [7] 0.134 | [8] -0.067 | [9] -0.036 | [10] 0.001

CNTN4 (UniProt Q8IWV2)
inactive: [1] 0.1 | [2] 0 | [3] 0.017 | [4] -0.148 | [5] -0.399 | [6] 0.341 | [7] -0.039 | [8] -0.169 | [9] -0.047 | [10] 0.222

CHURC1 isoform 2 (UniProt Q8WUH1)
inactive: [1] 0.187 | [2] -0.101 | [3] 0.025 | [4] -0.036 | [5] -0.097 | [6] 0.076 | [7] -0.022 | [8] 0.028 | [9] 0.021 | [10] 0.054

CNDP2 (UniProt Q96KP4)
inactive: [1] -0.171 | [2] -0.145 | [3] 0.041 | [4] -0.024 | [5] -0.049 | [6] -0.001 | [7] -0.008 | [8] 0.027 | [9] 0.017 | [10] 0.021

CIAO2A (UniProt Q9H5X1)
inactive: [1] 0.001 | [2] -0.123 | [3] 0.004 | [4] 0.015 | [5] -0.136 | [6] -0.099 | [7] -0.008 | [8] 0.045 | [9] -0.041 | [10] 0.071

CLPTM1L (UniProt Q96KA5)
inactive: [1] -0.053 | [2] -0.114 | [3] -0.095 | [4] -0.141 | [5] -0.032 | [6] -0.08 | [7] -0.007 | [8] 0.065 | [9] -0.02

CNOT4 isoform 6 (UniProt O95628)
inactive: [1] -0.057 | [2] 0.017 | [3] -0.023 | [4] -0.001 | [5] -0.036 | [6] 0.037 | [7] -0.007 | [8] -0.012 | [9] -0.008 | [10] 0.036

Quoted from the results shown (2 entries):
CIAO2A (UniProt Q9H5X1)
inactive: [1] 0.001 | [2] -0.123 | [3] 0.004 | [4] 0.015 | [5] -0.136 | [6] -0.099 | [7] -0.008 | [8] 0.045 | [9] -0.041 | [10] 0.071

CLPTM1L (UniProt Q96KA5)
inactive: [1] -0.053 | [2] -0.114 | [3] -0.095 | [4] -0.141 | [5] -0.032 | [6] -0.08 | [7] -0.007 | [8] 0.065 | [9] -0.02

Carrying on.

COA1 (UniProt Q9GZY4)
inactive: [1] -0.018 | [2] -0.085 | [3] -0.07 | [4] 0.014 | [5] -0.043 | [6] -0.098 | [7] -0.016 | [8] 0.119 | [9] -0.027 | [10] 0.018

CLASP1 (UniProt Q7Z460)
inactive: [1] 0.03 | [2] 0.117 | [3] 0.006 | [4] -0.032 | [5] -0.047 | [6] 0.173 | [7] 0.017 | [8] 0 | [9] -0.011

CNOT9 isoform 2 (UniProt Q92600)
inactive: [1] 0.097 | [2] 0.095 | [3] 0.018 | [4] -0.062 | [5] -0.048 | [6] 0.011 | [7] 0.002 | [8] -0.011 | [9] 0.016 | [10] 0.002

CNOT10 isoform 6 (UniProt Q9H9A5)
inactive: [1] -0.009 | [2] 0.031 | [3] -0.083 | [4] -0.054 | [5] 0.014 | [6] -0.015 | [7] -0.001 | [8] -0.01 | [9] 0.043 | [10] -0.116

CNNM3 (UniProt Q8NE01)
inactive: [1] 0.04 | [2] 0.094 | [3] -0.019 | [4] -0.03 | [5] -0.174 | [6] -0.005 | [7] 0.023 | [8] 0.066 | [9] 0.116 | [10] -0.041

CLPP (UniProt Q16740)
inactive: [1] -0.03 | [2] -0.017 | [3] 0 | [4] -0.038 | [5] -0.091 | [6] 0.011 | [7] 0.01 | [8] 0.021 | [9] -0.034

CNBP isoform 6 (UniProt P62633)
inactive: [1] -0.019 | [2] 0.089 | [3] -0.001 | [4] 0.013 | [5] -0.086 | [6] -0.064 | [7] -0.011 | [8] -0.036 | [9] 0.011 | [10] -0.012

CKAP5 (UniProt Q14008)
inactive: [1] 0.016 | [2] 0.043 | [3] 0.041 | [4] 0.03 | [5] -0.088 | [6] -0.009 | [7] 0.001 | [8] -0.155 | [9] -0.01 | [10] -0.024

CMC2 (UniProt Q9NRP2)
inactive: [1] 0.205 | [2] -0.029 | [3] -0.025 | [4] -0.015 | [5] -0.004 | [6] -0.009 | [7] -0.009 | [8] 0.033 | [9] -0.032 | [10] -0.05

COA7 (UniProt Q96BR5)
inactive: [1] 0.013 | [2] -0.082 | [3] -0.018 | [4] -0.026 | [5] -0.038 | [6] -0.081 | [7] 0.019 | [8] 0.036 | [9] 0.086 | [10] -0.001
